We go through 13 compounds from the supplement of paper PMC4604168 (melanoma cell lines).

The list shows a part of the results. Single values are uncertain, as repeats are few or missing.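 Cells were imaged in 1,536-well plates, and nuclei stained with an antibody against cleaved PARP were counted against all DNA-stained nuclei to give the apoptosis fraction. Screening doses were chosen to leave most cells alive, and resting and induced cleaved-PARP levels differ strongly between cell lines.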

In this test the test system is WM1745. In words: cleaved PARP positive nuclei fraction relative to DMSO control; melanoma cells; higher = more apoptosis. The following applies: library dose: low library concentration; 72 h.
In the case of `CN1CCN(c2ccc3nc(-c4c(N)c5c(F)cccc5[nH]c4=O)[nH]c3c2)CC1` [Dovitinib] + COc1ccc2c(c1)CCC1C2CCC2(C)C(NCCCCCCN3C(=O)C=CC3=O)CCC12 [U73122] (first compound 0.1 µM, partner dose 0.4 µM), the “cleaved PARP positive nuclei fraction” value was found to be 84.1%.

For `O=C(O)[C@@H]1[O][Sb](=[O])([O][Sb]2(=[O])[O][C@H]([C@H](O)CO)[C@H](O)[C@H](C(=O)O)[O]2)[O][C@H]([C@H](O)CO)[C@@H]1O` (stereo partly drawn) [stibogluconate] + COc1cc(N2CCC(N3CCN(C)CC3)CC2)ccc1Nc1ncc(Cl)c(Nc2ccccc2S(=O)(=O)C(C)C)n1 [NVP-TAE684] (first compound 2 µM, partner dose 0.08 µM), the “cleaved PARP positive nuclei fraction” value came to 98.3%.

As for `CCCS(=O)(=O)Nc1ccc(F)c(C(=O)c2c[nH]c3ncc(Cl)cc23)c1F` + N#Cc1c(O)c2c(-c3ccc(-c4ccccc4O)cc3)csc2[nH]c1=O [A769662] (first compound 0.08 µM, partner dose 2 µM), the “cleaved PARP positive nuclei fraction” value came out at 106%.

Take `CN1CCN(c2ccc3nc(-c4c(N)c5c(F)cccc5[nH]c4=O)[nH]c3c2)CC1` [Dovitinib] + Cc1cc(N2CCOCC2)cc2[nH]c(-c3c(NC[C@@H](O)c4cccc(Cl)c4)cc[nH]c3=O)nc12 [BMS536924] (first compound 0.1 µM, partner dose 0.2 µM): the “cleaved PARP positive nuclei fraction” value turned out to be 128%.

On to `C[C@@H](Oc1cc(-c2cnn(C3CCNCC3)c2)cnc1N)c1c(Cl)ccc(F)c1Cl` [Crizotinib] + COc1ccc(-c2ccc3c(N4CCOCC4)nc(N4C[C@@H](C)O[C@@H](C)C4)nc3n2)cc1CO [KU0063794] (first compound 0.2 µM, partner dose 0.02 µM), for which the “cleaved PARP positive nuclei fraction” value was 181%.

For the compound `O=C(O)[C@@H]1[O][Sb](=[O])([O][Sb]2(=[O])[O][C@H]([C@H](O)CO)[C@H](O)[C@H](C(=O)O)[O]2)[O][C@H]([C@H](O)CO)[C@@H]1O` (stereo partly drawn) [stibogluconate] + O=C(O)c1ccc(-c2c[nH]c3ncc(-c4ccccc4)cc23)cc1C1CCCC1 [GSK650394] (first compound 2 µM, partner dose 0.16 µM), the “cleaved PARP positive nuclei fraction” value was 68%.

For `Cn1c(=O)n(-c2ccc(C(C)(C)C#N)cc2)c2c3cc(-c4cnc5ccccc5c4)ccc3ncc21` + CCCCCCCCCCCC1=C(O)C(=O)C=C(O)C1=O [Embelin] (first compound 0.004 µM, partner dose 1.2 µM), the “cleaved PARP positive nuclei fraction” value was 89.7%.

As to `CN1CCN(c2ccc3nc(-c4c(N)c5c(F)cccc5[nH]c4=O)[nH]c3c2)CC1` [Dovitinib] + NCC(=O)Nc1ccc(-n2nc(C(F)(F)F)cc2-c2ccc3c(ccc4ccccc43)c2)cc1 [OSU03012] (first compound 0.1 µM, partner dose 1 µM), the “cleaved PARP positive nuclei fraction” value came out at 105%.

For the compound `C=C(c1ccc(C(=O)O)cc1)c1cc2c(cc1C)C(C)(C)CCC2(C)C` [Bexarotene] + Cc1cc([N+](=O)[O-])ccc1NS(=O)(=O)c1cc(Cl)ccc1Cl [FH535] (first compound 2 µM, partner dose 1 µM), the “cleaved PARP positive nuclei fraction” value amounted to 110%.

Regarding `Cc1cc(Nc2cc(N3CCN(C)CC3)nc(/C=C/c3ccccc3)n2)n[nH]1` + COC(=O)c1sccc1S(=O)(=O)Nc1ccc(Nc2ccccc2)cc1OC [GSK0660] (first compound 0.04 µM, partner dose 1 µM), the “cleaved PARP positive nuclei fraction” value stood at 91.6%.

On to `CC(C)C[C@H](NC(=O)[C@H](Cc1ccccc1)NC(=O)c1cnccn1)B(O)O` [Bortezomib] + Cc1cc([N+](=O)[O-])ccc1NS(=O)(=O)c1cc(Cl)ccc1Cl [FH535] (first compound 0.001 µM, partner dose 1 µM), for which the “cleaved PARP positive nuclei fraction” value came to 140%.

Turning to `CC(C)C[C@H](NC(=O)[C@H](Cc1ccccc1)NC(=O)c1cnccn1)B(O)O` [Bortezomib] + O=C(CCCCCCC(=O)Nc1ccccc1)NO [vorinostat] (first compound 0.001 µM, partner dose 0.08 µM), the “cleaved PARP positive nuclei fraction” value came out at 118%.

Regarding `Nc1ncn([C@H]2C[C@H](O)[C@@H](CO)O2)c(=O)n1` [decitabine] + COc1ccc2c(c1)CCC1C2CCC2(C)C(NCCCCCCN3C(=O)C=CC3=O)CCC12 [U73122] (first compound 0.1 µM, partner dose 0.4 µM), the “cleaved PARP positive nuclei fraction” value was found to be 192%.
